Source: publication doi:10.1101/2023.12.03.569804
Results are given in words; binding and its absence hold for the method and conditions named. Binding seen in cells or lysates may run through a third protein. Some results given as binding are weak or reduced against the parent protein; the word gives no strength. For part of these data: Sequences can lack the tags named with a protein.

Sequences of proteins named here, by UniProt entry; tags and fusion partners are left off.
UniProt P45973: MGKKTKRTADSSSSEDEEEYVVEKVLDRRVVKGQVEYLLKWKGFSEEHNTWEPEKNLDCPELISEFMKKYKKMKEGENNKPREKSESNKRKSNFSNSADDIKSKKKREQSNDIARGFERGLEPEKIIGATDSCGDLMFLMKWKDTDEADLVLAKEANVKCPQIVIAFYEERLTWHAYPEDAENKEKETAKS
UniProt P83916: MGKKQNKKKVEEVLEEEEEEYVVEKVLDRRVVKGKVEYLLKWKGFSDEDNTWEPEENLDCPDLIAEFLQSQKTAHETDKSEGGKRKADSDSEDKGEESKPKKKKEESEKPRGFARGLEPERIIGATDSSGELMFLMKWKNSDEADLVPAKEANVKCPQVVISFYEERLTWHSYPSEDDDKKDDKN
UniProt Q13185: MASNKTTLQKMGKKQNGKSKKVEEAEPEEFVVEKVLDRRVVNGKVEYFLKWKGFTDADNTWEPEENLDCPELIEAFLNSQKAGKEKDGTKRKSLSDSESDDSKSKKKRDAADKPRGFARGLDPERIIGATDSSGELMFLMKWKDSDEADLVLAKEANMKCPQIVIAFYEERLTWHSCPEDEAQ

Assays:
Experiment in all cases: co-IP
[1] = biological target: T1, HTM-C V402D-V404D-sfGFP (human) (UniProt Q86Y97)
T1 sequence: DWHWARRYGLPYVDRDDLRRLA

[2] = biological target: HTM-N V354D-sfGFP (human) (UniProt Q86Y97)
[3] = biological target: T2, HTM-C-sfGFP (SUV420H2 heterochromatic targeting module C-terminal region, aa 389-410, tagged with superfolder GFP) (human) (UniProt Q86Y97)
T2 sequence: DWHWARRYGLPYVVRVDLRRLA

[4] = biological target: HTM-N-sfGFP (SUV420H2 heterochromatic targeting module N-terminal region, aa 352-380, tagged with superfolder GFP) (human) (UniProt Q86Y97)

Row | binding [1] | binding [2] | binding [3] | binding [4] | Substance
1 | no binding | no binding | binds | binds | HP1α (heterochromatin protein 1 alpha) (from UniProt P45973 1-191)
2 | no binding | no binding | binds | binds | HP1β (heterochromatin protein 1 beta) (from UniProt P83916 1-185)
3 | no binding | no binding | binds | binds | HP1γ (heterochromatin protein 1 gamma) (from UniProt Q13185 1-183)
